Test results published in article doi:10.1101/360628.
These are yes or no findings as the source states them, for the method shown. For some of these results: In cells and extracts the contact can be indirect. Some entries that bind do so weakly or less than the wild type.

Protein sequences, listed by entry. Tags and fused reporters are not part of them. Lines headed by an entry give the natural chain unless they say otherwise; changes in a name come on top. Residues count along the entry.
UniProt Q9VT57: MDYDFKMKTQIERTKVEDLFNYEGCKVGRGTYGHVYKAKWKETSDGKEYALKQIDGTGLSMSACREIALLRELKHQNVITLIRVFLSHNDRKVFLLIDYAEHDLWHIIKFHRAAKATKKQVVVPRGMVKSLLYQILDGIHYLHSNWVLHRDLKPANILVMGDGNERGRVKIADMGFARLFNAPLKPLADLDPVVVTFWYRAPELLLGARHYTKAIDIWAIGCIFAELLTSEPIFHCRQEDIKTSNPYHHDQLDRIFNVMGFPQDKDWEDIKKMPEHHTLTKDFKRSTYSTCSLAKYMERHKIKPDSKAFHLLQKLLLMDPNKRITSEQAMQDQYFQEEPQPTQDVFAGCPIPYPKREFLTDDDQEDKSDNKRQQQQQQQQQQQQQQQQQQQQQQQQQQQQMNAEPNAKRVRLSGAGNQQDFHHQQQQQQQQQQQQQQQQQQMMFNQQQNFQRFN
UniProt P42003: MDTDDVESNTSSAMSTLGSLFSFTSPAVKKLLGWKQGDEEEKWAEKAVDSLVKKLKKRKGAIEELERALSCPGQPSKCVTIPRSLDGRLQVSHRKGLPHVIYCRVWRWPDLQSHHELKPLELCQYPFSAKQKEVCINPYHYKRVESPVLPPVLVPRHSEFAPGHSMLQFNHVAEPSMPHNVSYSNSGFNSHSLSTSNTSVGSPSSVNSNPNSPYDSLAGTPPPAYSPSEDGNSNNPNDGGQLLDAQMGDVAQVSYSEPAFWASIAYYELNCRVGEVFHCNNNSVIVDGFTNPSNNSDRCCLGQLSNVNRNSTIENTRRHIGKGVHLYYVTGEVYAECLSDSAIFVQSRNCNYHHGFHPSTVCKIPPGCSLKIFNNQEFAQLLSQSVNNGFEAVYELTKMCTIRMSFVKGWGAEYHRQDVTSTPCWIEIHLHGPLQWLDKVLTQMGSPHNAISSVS
BD-Mad-N2 (Mad-N2 fragment as the bait, GAL4-DNA-binding domain fusion): residues 1-230 of P42003
BD-Mad-N1 (Mad-N1 fragment as the bait, GAL4-DNA-binding domain fusion): residues 1-150 of P42003

Tests used:
[1] = biological target: GST-CDK8 (full-length CDK8 fused with an N-terminal GST tag) (Drosophila) (UniProt Q9VT57); assay: pull-down
[2] = biological target: BD-Mad-N1 (Mad-N1 fragment as the bait, GAL4-DNA-binding domain fusion) (Drosophila) (UniProt P42003); assay: two-hybrid
[3] = biological target: BD-Mad-N2 (Mad-N2 fragment as the bait, GAL4-DNA-binding domain fusion) (Drosophila) (UniProt P42003); assay: two-hybrid

| Substance | binding [1] | binding [2] | binding [3] |
| --- | --- | --- | --- |
| His-tagged Mad-N1 fragment (AA1-150) (from UniProt P42003 1-150) (domain or fragment) | no binding | – | – |
| His-tagged Mad-N2 fragment (AA1-230) (from UniProt P42003 1-230) (domain or fragment) | binds | – | – |
| His-tagged Mad-C2 fragment (AA151-455) (from UniProt P42003 151-455) (domain or fragment) | binds | – | – |
| His-tagged full length Mad (Mad-FL, AA1-455) (from UniProt P42003 1-455) | binds | – | – |
| His-tagged Mad-C1 fragment (AA231-455) (from UniProt P42003 231-455) (domain or fragment) | no binding | – | – |
| AD-CDK8 (full length CDK8 as the prey, GAL4-activation domain fusion) (from UniProt Q9VT57 1-454) (enzyme) | – | no binding | binds |
